PubChem BioAssay AID652243, Drosophila RNAi Screening Center, 2013
In all, the deposit lists about 24,000 reagents; below is a random part of those with a known target gene and a result. Of all reagents, 246 (1%) got an active call. 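Plates not normalised; calls are printed but the firefly/Renilla ratio behind them is not deposited; fold cut for lowering reported inconsistently.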 Raw values are not corrected between plates. The record does not give: the amount of reagent.

Test: 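Fly regulators of androgen-dependent reporter output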 (primary screen)
System: Drosophila S2R+ cells
Knock-down reagent: long dsRNA against Drosophila genes
Duration: 72 h (48 h, then 24 h hormone)
Treatment: synthetic androgen R1881 at 10 nM for 24 h
Measured: 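Firefly light from an androgen-responsive reporter and Renilla control light per well, raw and unnormalised, for each of two replicates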
Reading the numbers: firefly reporter light: higher = more light from androgen-responsive reporter; Renilla control light: higher = more constitutive control signal (cell number, transfection)
Active means: 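Hit when the log firefly-to-Renilla ratio dropped or increased by a fixed fold versus the mean of GFP or LacZ controls across duplicate plates; lowering cut given as 1.5 and as 3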
Calls: active = hit: reporter lowered or raised; inactive = no hit

| target gene | dsRNA | firefly reporter light, replicate 1 | firefly reporter light, replicate 2 | Renilla control light, replicate 1 | Renilla control light, replicate 2 | Call |
| --- | --- | --- | --- | --- | --- | --- |
| Sec16 (Secretory 16) | DRSC19788 | 7.82e5 | 3.98e5 | 3.20e6 | 2.93e6 | inactive |
| Naglu (N-acetyl-alpha-glucosaminidase) | DRSC02267 | 7.82e5 | 1.05e6 | 1.74e6 | 1.86e6 | inactive |
| Naa35 (N(alpha)-acetyltransferase 35) | DRSC04447 | 5.99e5 | 7.27e5 | 1.14e6 | 1.27e6 | inactive |
| Naa35 (N(alpha)-acetyltransferase 35) | DRSC26149 | 2.60e5 | 3.58e5 | 6.58e5 | 6.68e5 | inactive |
| sub (subito) | DRSC06125 | 9.26e5 | 9.02e5 | 1.53e6 | 1.76e6 | inactive |
| Eaat1 (Excitatory amino acid transporter 1) | DRSC03321 | 1.61e5 | 1.06e5 | 1.47e6 | 1.02e6 | inactive |
| Npc1b (Niemann-Pick type C-1b) | DRSC20488 | 1.89e5 | 1.49e5 | 5.48e5 | 3.72e5 | inactive |
| DIP-alpha (Dpr-interacting protein alpha) | DRSC17891 | 5.22e5 | 3.68e5 | 3.43e6 | 3.97e6 | inactive |
| DIP-alpha (Dpr-interacting protein alpha) | DRSC23275 | 5.06e5 | 5.72e5 | 1.47e6 | 1.57e6 | inactive |
| CG13884 | DRSC08354 | 49116 | 40525 | 8.03e5 | 5.77e5 | inactive |
| CG14227 | DRSC19584 | 5.95e5 | 6.45e5 | 3.57e6 | 4.54e6 | inactive |
| CG14227 | DRSC29213 | 7.70e5 | 6.87e5 | 1.13e6 | 1.05e6 | inactive |
| CG14234 | DRSC19317 | 6.15e5 | 5.36e5 | 6.18e5 | 4.24e5 | inactive |
| CG14234 | DRSC19589 | 1.46e5 | 1.57e5 | 6.04e5 | 5.30e5 | inactive |
| CG8289 | DRSC20101 | 78805 | 1.24e5 | 7.28e5 | 6.48e5 | inactive |
| CG8289 | DRSC25677 | 1.17e6 | 9.87e5 | 1.27e6 | 1.34e6 | inactive |
| E(spl)m7-HLH (Enhancer of split m7, helix-loop-helix) | DRSC16696 | 1.49e5 | 2.02e5 | 2.07e6 | 2.21e6 | inactive |
| E(spl)m7-HLH (Enhancer of split m7, helix-loop-helix) | DRSC29451 | 4.26e5 | 4.21e5 | 8.47e5 | 8.47e5 | inactive |
| CG34251 | DRSC38836 | 7.70e5 | 6.91e5 | 2.04e6 | 1.62e6 | inactive |
| Vang (Van Gogh) | DRSC07570 | 1.68e5 | 1.75e5 | 1.54e6 | 1.87e6 | inactive |
| CG6026 | DRSC15950 | 1.49e5 | 2.41e5 | 2.12e6 | 3.34e6 | inactive |
| Obp56b (Odorant-binding protein 56b) | DRSC06551 | 87719 | 98678 | 1.06e6 | 9.81e5 | inactive |
| wat (waterproof) | DRSC14854 | 2.63e5 | 1.77e5 | 2.17e6 | 3.03e6 | inactive |
| CG16965 | DRSC02547 | 1.28e5 | 2.22e5 | 9.98e5 | 9.00e5 | inactive |
| CG10465 | DRSC04848 | 3.28e5 | 3.27e5 | 1.65e6 | 1.69e6 | inactive |
| CG33985 | DRSC37800 | 3.89e5 | 7.14e5 | 9.61e5 | 1.88e6 | inactive |
| mus304 (mutagen-sensitive 304) | DRSC11372 | 2.00e5 | 1.73e5 | 1.65e6 | 2.01e6 | inactive |
| mRpL13 (mitochondrial ribosomal protein L13) | DRSC02076 | 2.07e5 | 1.52e5 | 1.50e6 | 1.82e6 | inactive |
| mRpL13 (mitochondrial ribosomal protein L13) | DRSC30067 | 1.19e6 | 5.22e5 | 1.18e6 | 8.86e5 | inactive |
| ATPsynE (ATP synthase, subunit E) | DRSC15476 | 99794 | 1.11e5 | 6.76e5 | 1.02e6 | inactive |
| ATPsynE (ATP synthase, subunit E) | DRSC30103 | 8.08e5 | 7.40e5 | 1.13e6 | 9.60e5 | inactive |
| GstD2 (Glutathione S transferase D2) | DRSC16684 | 1.15e5 | 75885 | 1.73e6 | 1.48e6 | inactive |
| GstD2 (Glutathione S transferase D2) | DRSC27903 | 9.28e5 | 5.51e5 | 2.43e6 | 1.71e6 | inactive |
| CG6191 | DRSC23127 | 7.12e5 | 7.13e5 | 9.85e5 | 9.56e5 | inactive |
| CG16894 | DRSC06634 | 5.45e5 | 3.86e5 | 3.37e6 | 2.86e6 | inactive |
| CG16894 | DRSC21785 | 6.81e5 | 5.51e5 | 1.51e6 | 1.77e6 | inactive |
| Naxd (NAD(P)HX dehydratase) | DRSC09722 | 40237 | 28727 | 3.36e5 | 2.15e5 | inactive |
| CG10340 | DRSC14232 | 83273 | 61866 | 3.08e5 | 5.12e5 | inactive |
| Rs1 | DRSC05945 | 1.19e6 | 5.94e5 | 1.98e6 | 9.65e5 | inactive |
| Rs1 | DRSC26592 | 4.26e5 | 4.54e5 | 7.06e5 | 7.27e5 | inactive |

A few values from the entries so far.
CG14234 [DRSC19589], Renilla control light, replicate 2 → 5.30e5
For “Renilla control light, replicate 2”, CG14234 [DRSC19317] reads 4.24e5
